The assay concerns the target T1, full-length SF-Dlg3 (Streptavidin-Flag-tagged Dlg3) (UniProt P70175).
T1 sequence: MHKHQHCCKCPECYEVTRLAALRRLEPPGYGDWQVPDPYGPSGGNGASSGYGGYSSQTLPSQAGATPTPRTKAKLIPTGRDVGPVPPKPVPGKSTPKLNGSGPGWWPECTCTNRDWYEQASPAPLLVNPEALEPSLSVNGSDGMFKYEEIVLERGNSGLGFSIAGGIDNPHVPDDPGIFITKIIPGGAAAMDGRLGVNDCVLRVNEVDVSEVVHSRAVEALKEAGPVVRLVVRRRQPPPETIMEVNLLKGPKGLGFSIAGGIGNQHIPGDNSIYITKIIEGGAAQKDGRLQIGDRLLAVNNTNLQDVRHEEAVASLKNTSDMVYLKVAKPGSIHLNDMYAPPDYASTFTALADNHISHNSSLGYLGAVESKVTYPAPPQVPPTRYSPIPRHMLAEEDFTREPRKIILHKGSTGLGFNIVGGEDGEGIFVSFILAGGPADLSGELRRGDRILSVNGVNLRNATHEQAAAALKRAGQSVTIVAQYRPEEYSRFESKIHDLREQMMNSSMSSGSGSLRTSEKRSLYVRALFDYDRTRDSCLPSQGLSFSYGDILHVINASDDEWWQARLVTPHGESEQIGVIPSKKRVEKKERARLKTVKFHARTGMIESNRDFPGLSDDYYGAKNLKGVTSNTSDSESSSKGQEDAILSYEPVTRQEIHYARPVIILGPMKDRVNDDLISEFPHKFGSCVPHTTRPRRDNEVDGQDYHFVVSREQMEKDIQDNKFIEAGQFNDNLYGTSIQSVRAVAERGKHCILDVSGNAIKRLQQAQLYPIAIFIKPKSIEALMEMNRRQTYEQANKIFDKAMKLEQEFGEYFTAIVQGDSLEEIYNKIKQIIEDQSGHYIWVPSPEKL
In words: co-IP; SF-tagged Dlg3 variants precipitated on Strep-Tactin resin (Strep-IP) from lysates of serum starved, ciliated HEK293T cells co-transfected with Fltp-myc variants; lysis buffer 50 mM Tris/HCl pH 7.4, 150 mM NaCl, 2 mM EDTA, 1% Nonidet P-40; 1 hr at 4°C; desthiobiotin elution; western blot.

Results are given in words; binding and its absence hold for the method and conditions named. Binding seen in cells or lysates may run through a third protein. Some results given as binding are weak or reduced against the parent protein; the word gives no strength. Sequences can lack the tags named with a protein.

B1: full-length Fltp-myc (Flattop, myc-tagged) (protein, UniProt Q6P8X9 1-189)
chain: MATNYSANQYEKAYLPTYLQNWSPARPTKEKIAAHEGYTQIIANDRGHLLPSVPRSKASPWGSFMGTWQMPLKIPPAKVTLTARTTTAADNLTKWIHKNPDLLNACNGLRPEISGKPFDPDSQTKQKKSVTKTVQQAPNPTIIPSSPVIQGDNPDEPQSSHPSAGHTPGPQTPVNSPNNPPPSPCKSTK
As for B1, the binding entry was “binds”.

Source of the values: PMC4221739.
